Article PMC5946387
Results are given in words; binding and its absence hold for the method and conditions named. Binding seen in cells or lysates may run through a third protein. Some entries that bind do so weakly or less than the wild type. Where a sequence is shown, tags or fusion partners need not be part of it.

Key:
[1] = biological target: T1, HIRA[ΔB]::Flag (HIRA with a deletion in the B domain, 3xFLAG-tagged) (Drosophila melanogaster) (UniProt O17468); assay: co-IP; ovarian extracts of transgenic females; 100 µg extract with anti-V5 agarose beads or anti-FLAG M2 affinity gel overnight at 4 °C; washing buffer 20 mM Hepes pH 7.9, 100 mM KCl, 200 mM NaCl, 0.05% Igepal; Western blot
T1 sequence: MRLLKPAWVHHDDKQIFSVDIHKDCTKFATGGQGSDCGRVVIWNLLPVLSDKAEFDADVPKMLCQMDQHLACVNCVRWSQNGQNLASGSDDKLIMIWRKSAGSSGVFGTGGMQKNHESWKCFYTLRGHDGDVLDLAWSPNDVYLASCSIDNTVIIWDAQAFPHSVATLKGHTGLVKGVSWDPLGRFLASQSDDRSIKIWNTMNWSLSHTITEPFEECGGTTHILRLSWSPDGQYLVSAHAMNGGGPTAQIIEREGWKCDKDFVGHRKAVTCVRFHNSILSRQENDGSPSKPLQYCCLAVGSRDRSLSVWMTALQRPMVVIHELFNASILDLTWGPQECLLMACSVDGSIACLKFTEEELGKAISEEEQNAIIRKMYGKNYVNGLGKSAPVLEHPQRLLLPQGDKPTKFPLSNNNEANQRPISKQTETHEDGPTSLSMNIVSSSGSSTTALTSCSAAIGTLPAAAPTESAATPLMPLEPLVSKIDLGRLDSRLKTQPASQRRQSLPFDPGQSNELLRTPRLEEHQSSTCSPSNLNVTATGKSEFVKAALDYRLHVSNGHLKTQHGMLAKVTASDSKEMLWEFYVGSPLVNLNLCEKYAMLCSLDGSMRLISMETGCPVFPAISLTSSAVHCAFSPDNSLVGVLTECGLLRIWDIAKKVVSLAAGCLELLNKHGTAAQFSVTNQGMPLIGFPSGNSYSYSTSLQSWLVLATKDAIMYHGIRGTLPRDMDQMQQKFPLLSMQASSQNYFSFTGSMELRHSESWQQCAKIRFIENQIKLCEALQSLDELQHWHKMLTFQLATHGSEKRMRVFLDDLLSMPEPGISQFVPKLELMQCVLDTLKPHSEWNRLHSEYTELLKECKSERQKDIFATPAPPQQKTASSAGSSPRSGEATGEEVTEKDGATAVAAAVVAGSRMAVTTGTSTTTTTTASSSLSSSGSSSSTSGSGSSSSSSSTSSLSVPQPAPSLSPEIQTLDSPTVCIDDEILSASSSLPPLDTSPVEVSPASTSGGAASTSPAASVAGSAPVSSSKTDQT

[2] = biological target: T2, HIRA::Flag (Histone Regulator-A, 3xFLAG-tagged) (Drosophila melanogaster) (UniProt O17468); assay: as above
T2 sequence: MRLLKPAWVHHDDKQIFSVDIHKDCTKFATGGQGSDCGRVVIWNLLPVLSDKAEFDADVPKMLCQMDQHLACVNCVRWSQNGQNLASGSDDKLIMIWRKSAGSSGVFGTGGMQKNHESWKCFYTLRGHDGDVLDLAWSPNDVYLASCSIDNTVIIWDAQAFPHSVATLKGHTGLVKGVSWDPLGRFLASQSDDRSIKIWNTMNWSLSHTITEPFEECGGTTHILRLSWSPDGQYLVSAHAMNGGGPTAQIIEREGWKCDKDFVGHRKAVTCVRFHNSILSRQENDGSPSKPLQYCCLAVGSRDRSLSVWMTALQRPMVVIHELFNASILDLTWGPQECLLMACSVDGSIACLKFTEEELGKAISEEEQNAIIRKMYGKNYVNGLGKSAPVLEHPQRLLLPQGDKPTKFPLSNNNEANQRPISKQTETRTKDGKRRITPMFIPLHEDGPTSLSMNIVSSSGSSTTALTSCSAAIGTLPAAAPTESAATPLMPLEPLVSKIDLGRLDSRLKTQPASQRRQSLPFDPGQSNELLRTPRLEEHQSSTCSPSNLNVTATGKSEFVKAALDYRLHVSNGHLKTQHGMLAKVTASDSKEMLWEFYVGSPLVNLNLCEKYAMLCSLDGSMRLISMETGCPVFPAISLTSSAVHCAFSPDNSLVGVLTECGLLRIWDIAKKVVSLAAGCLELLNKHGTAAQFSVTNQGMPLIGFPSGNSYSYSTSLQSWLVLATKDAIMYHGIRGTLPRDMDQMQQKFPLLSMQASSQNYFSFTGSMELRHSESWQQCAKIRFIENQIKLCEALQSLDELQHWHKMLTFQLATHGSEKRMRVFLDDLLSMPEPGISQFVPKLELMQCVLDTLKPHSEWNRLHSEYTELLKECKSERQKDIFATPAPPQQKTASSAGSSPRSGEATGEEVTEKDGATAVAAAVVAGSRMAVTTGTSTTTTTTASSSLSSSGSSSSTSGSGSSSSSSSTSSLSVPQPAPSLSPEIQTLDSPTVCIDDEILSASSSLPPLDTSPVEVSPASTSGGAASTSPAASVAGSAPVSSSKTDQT

binding [1]: binds | binding [2]: binds
B1: ASF1::V5 (Anti-Silencing Factor 1, V5-tagged) (protein, UniProt Q9V464 1-218)
chain: MAKVHITNVVVLDNPSSFFNPFQFELTFECIEELKEDLEWKMIYVGSAESEEHDQVLDTIYVGPVPEGRHIFVFQADPPDVSKIPEPDAVGVTIVLLTCSYRGQEFVRVGYYVNNDYADPEMRENPPTKPLFEKLTRNILASKPRVTRFKINWDYGHINGNGNGVENGHQDEMATDGPSTSEAASAVIHPEDDNSLAMPMENGIKALNENSNSLAMEC
